Laboratory results published in publication PMC6941357, “An in vitro toolbox to accelerate anti-malarial drug discovery and development” (Malaria Journal, 2020).
A number of entries come with more than one value. They are shown here; other results are not. There may be further records. Values that stand side by side differ, and nothing given here explains why; dose, time, organism, isomer or construct need not be as stated for each record. Values belong to the compound of their own block, whether it stands above or below them.

Assays:
human plasma = assay: Plasma protein binding via rapid equilibrium dialysis (RED), 10% plasma; assay type: in vitro ADME; details: 10% plasma corrected for dilution, presaturation of device and 24 h dialysis
[1] = basic pKa (B); cited from earlier work
Caco-2 cell monolayers = assay: Bidirectional permeability across Caco-2 cell monolayers; details: matrix: pH 7.4 buffer

- Fraction unbound, human plasma (human plasma): 0.002 and 0.0028 ± 0.0002
SMILES: CC(C)(C)NCc1cc(C(C)(C)C)cc(-c2cnc(C(F)(F)F)c(F)c2)c1O [JPC3210]

SMILES: O=C(NCCN1CCCC1)c1cc(-c2ccc(CN3CCOCC3)cc2)nc2ccc(F)cc12 [M5717]
- Measured pKa [1]: 8.7 and 6.8

SMILES: CCc1nc(N)nc(N)c1OCCCOc1ccccc1CCC(=O)O.Cl [P218]
- A–B Papp (Caco-2 cell monolayers): < 5 10^−6 cm/s and 0.71 ± 0.04 10^−6 cm/s
